Data as given in PubChem BioAssay AID493246 (Drosophila RNAi Screening Center, 2011).
Test: 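Genome-wide search for dsRNAs that reduce cell number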 (primary screen). Cells: Drosophila Kc and S2R+ cells. Knock-down reagent: long dsRNA against Drosophila genes. Detection: 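Raw, unnormalised count of remaining cells in each well; per-plate z-scores of cell number underlie the calls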. Direction: Kc cell number and S2R+ cell number: higher = more cells remaining. Rule for the call: 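Counted as a hit if cell number falls by a z-score of at least 3 within its plate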.
In all, the deposit lists about 21,000 reagents; below is a random part of those that have a named target and a result. In the full data, 429 (2%) got an active call. 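Values are raw and not normalised between plates; calls rest on per-plate z-scores that were not deposited.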 A plus sign joins genes that one reagent is predicted to hit. The record does not give: the amount of reagent, the time to read-out.

Gene | DRSC id | Kc cell number, rep 1 | Kc cell number, rep 2 | S2R+ cell number, rep 1 | S2R+ cell number, rep 2 | Call
CG31380 (GeneID 318701) | DRSC15688 | 1.50e6 | 1.47e6 | 9.93e5 | 1.07e6 | inactive
CG17650 (GeneID 33358) | DRSC00510 | 1.50e6 | 1.52e6 | 1.12e6 | 1.32e6 | inactive
Ir56a (GeneID 246471) | DRSC05776 | 6.02e5 | – | 9.26e5 | – | inactive
beta3GalTII (GeneID 35848) | DRSC07253 | 1.73e6 | 1.79e6 | 1.28e6 | 1.46e6 | inactive
CG3097 (GeneID 31503) | DRSC18275 | 1.74e6 | 1.79e6 | 1.14e6 | 1.25e6 | inactive
CG13659 (GeneID 43059) | DRSC14660 | 1.55e6 | 1.52e6 | 1.00e6 | 1.14e6 | inactive
Or42b (GeneID 35516) | DRSC04913 | 1.64e6 | 1.68e6 | 1.40e6 | 1.44e6 | inactive
RabGGTb (GeneID 47757) | DRSC00804 | 1.31e6 | 1.36e6 | 7.05e5 | 8.22e5 | inactive
Rpn8 (GeneID 37894) | DRSC04624 | 8.97e5 | 9.70e5 | 6.57e5 | 8.11e5 | active
Dis3 (GeneID 42900) | DRSC16034 | 1.29e6 | 1.40e6 | 8.07e5 | 8.77e5 | inactive
fs(2)ltoPP43 (GeneID 49505) | DRSC02067 | 1.64e6 | 1.70e6 | 1.13e6 | 2.58e5 | inactive
CG3894 (GeneID 37959) | DRSC01762 | 5.20e5 | – | 8.41e5 | – | inactive
CG3894 (GeneID 37959) | DRSC04012 | 1.43e6 | 1.49e6 | 9.88e5 | 1.09e6 | inactive
CG3894 (GeneID 37959) | DRSC04429 | 1.70e6 | 1.68e6 | 1.35e6 | 1.30e6 | inactive
CG15743 (GeneID 32279) | DRSC19709 | 1.74e6 | 1.60e6 | 1.09e6 | 1.24e6 | inactive
CG6791 (GeneID 41391) | DRSC16118 | 1.76e6 | 1.82e6 | 1.21e6 | 1.31e6 | inactive
CG8343 (GeneID 35544) | DRSC04905 | 1.31e6 | 1.37e6 | 1.10e6 | 1.17e6 | inactive
gzl (GeneID 40791) | DRSC12517 | 1.88e6 | 1.92e6 | 1.38e6 | 1.44e6 | inactive
CG15308 (GeneID 50415) | DRSC17995 | 1.59e6 | 1.50e6 | 1.15e6 | 1.28e6 | inactive
Sema1a (GeneID 34192) | DRSC03433 | 1.61e6 | 1.63e6 | 1.30e6 | 1.50e6 | inactive
CG34231 (GeneID 5740811) | DRSC05323 | 1.47e6 | 1.47e6 | 1.02e6 | 1.18e6 | inactive
CG3597 (GeneID 33420) | DRSC00617 | 1.44e6 | 1.50e6 | 1.03e6 | 1.15e6 | inactive
CG5676 (GeneID 34368) | DRSC02875 | 1.52e6 | 1.57e6 | 1.23e6 | 1.32e6 | inactive
CG34290 (GeneID 5740609) | DRSC13660 | 1.25e6 | 1.43e6 | 1.14e6 | 8.96e5 | inactive
CG9897 + asRNA:CR42742 | DRSC04595 | 1.75e6 | 1.81e6 | 1.25e6 | 1.38e6 | inactive
Loxl2 (GeneID 37485) | DRSC04469 | 1.43e6 | 1.50e6 | 8.57e5 | 9.75e5 | inactive
CG12116 (GeneID 31782) | DRSC17812 | 1.62e6 | 1.56e6 | 1.06e6 | 1.25e6 | inactive
AANATL2 (GeneID 33874) | DRSC03227 | 1.62e6 | 1.60e6 | 1.24e6 | 1.43e6 | inactive
mTTF (GeneID 34837) | DRSC01909 | 1.51e6 | 1.58e6 | 1.13e6 | 1.29e6 | inactive
pasi1 (GeneID 42139) | DRSC16299 | 1.31e6 | 1.27e6 | 1.07e6 | 1.16e6 | inactive
CG18302 (GeneID 34452) | DRSC02663 | 1.63e6 | 1.67e6 | 1.29e6 | 1.56e6 | inactive
CG1785 (GeneID 31810) | DRSC18139 | 6.03e5 | – | 8.29e5 | – | inactive
park + Targ3 | DRSC11617 | 1.80e6 | 1.86e6 | 1.54e6 | 1.58e6 | inactive
GILT3 (GeneID 42787) | DRSC14672 | 1.59e6 | 1.59e6 | 9.61e5 | 1.05e6 | inactive
Nepl7 (GeneID 34671) | DRSC02495 | 1.53e6 | 1.56e6 | 1.21e6 | 1.42e6 | inactive
dind (GeneID 42243) | DRSC16294 | 1.56e6 | 1.60e6 | 1.10e6 | 1.17e6 | inactive
CG14626 (GeneID 31064) | DRSC18631 | 1.48e6 | 1.48e6 | 1.09e6 | 1.25e6 | inactive
CG42319 (GeneID 36473) | DRSC06645 | 1.55e6 | 1.53e6 | 1.21e6 | 1.29e6 | inactive
CG42319 (GeneID 36473) | DRSC06646 | 1.45e6 | 1.52e6 | 1.24e6 | 1.36e6 | inactive
Acbp5 (GeneID 39005) | DRSC10548 | 1.43e6 | 1.58e6 | 1.22e6 | 1.30e6 | inactive
slv (GeneID 35773) | DRSC07685 | 1.45e6 | 1.61e6 | 1.27e6 | 1.38e6 | inactive
CG3592 (GeneID 31282) | DRSC18315 | 1.47e6 | 1.46e6 | 1.02e6 | 1.13e6 | inactive
JhI-21 (GeneID 34624) | DRSC02161 | 1.32e6 | 1.41e6 | 1.22e6 | 1.25e6 | inactive
bigmax (GeneID 43293) | DRSC15481 | 5.17e5 | – | 8.50e5 | – | inactive
JhI-26 (GeneID 36819) | DRSC06851 | 1.31e6 | 1.37e6 | 1.21e6 | 1.20e6 | inactive
CG34112 (GeneID 4379842) | DRSC12235 | 1.46e6 | 1.37e6 | 1.37e6 | 1.48e6 | inactive
Mcm3 (GeneID 31449) | DRSC18679 | 6.00e5 | – | 8.81e5 | – | inactive
Reps (GeneID 34542) | DRSC02940 | 1.55e6 | 1.64e6 | 1.24e6 | 1.40e6 | inactive
Phf7 (GeneID 33015) | DRSC20692 | 1.54e6 | 1.61e6 | 1.11e6 | 1.20e6 | inactive
Adf1 (GeneID 47082) | DRSC04941 | 1.51e6 | 1.52e6 | 1.02e6 | 1.14e6 | inactive
Adf1 (GeneID 47082) | DRSC04963 | 1.21e6 | 1.26e6 | 1.03e6 | 1.10e6 | inactive
Rrp40 (GeneID 319033) | DRSC00074 | 1.46e6 | 1.52e6 | 1.06e6 | 1.22e6 | inactive
galla-1 (GeneID 246485) | DRSC05987 | 1.41e6 | 1.32e6 | 9.94e5 | 1.23e6 | inactive
Spn77Bb + Spn77Bc | DRSC10689 | 1.54e6 | 1.64e6 | 1.26e6 | 1.40e6 | inactive
Spn77Bb + Spn77Bc | DRSC11793 | 1.46e6 | 1.49e6 | 1.29e6 | 1.43e6 | inactive
Rab14 (GeneID 34840) | DRSC03403 | 1.36e6 | 1.33e6 | 1.29e6 | 1.32e6 | inactive
CG42735 (retired record) (GeneID 10178938) | DRSC00921 | 1.52e6 | 1.54e6 | 1.07e6 | 1.18e6 | inactive
kraken (GeneID 33265) | DRSC00824 | 1.43e6 | 1.52e6 | 9.84e5 | 1.16e6 | inactive
CG14015 (GeneID 33780) | DRSC02346 | 1.54e6 | 1.39e6 | 1.15e6 | 1.39e6 | inactive
CG10911 (GeneID 37058) | DRSC06008 | 1.53e6 | 1.64e6 | 1.22e6 | 1.30e6 | inactive
RpL12 (GeneID 45329) | DRSC04344 | 9.85e5 | 1.10e6 | 7.67e5 | 8.04e5 | active
CG4377 (GeneID 37489) | DRSC04467 | 1.45e6 | 1.49e6 | 1.09e6 | 1.16e6 | inactive
Rab27 (GeneID 31103) | DRSC18567 | 5.33e5 | – | 8.49e5 | – | inactive
CG15136 (GeneID 35033) | DRSC02436 | 1.48e6 | 1.54e6 | 1.21e6 | 1.40e6 | inactive
Xrp1 (GeneID 42267) | DRSC15282 | 2.89e5 | 3.54e5 | 3.49e5 | 4.46e5 | active
Xrp1 (GeneID 42267) | DRSC15283 | 1.14e6 | 1.26e6 | 8.45e5 | 8.77e5 | inactive
Msr-110 (GeneID 38629) | DRSC11227 | 1.12e6 | 1.03e6 | 1.14e6 | 5.80e5 | inactive
cdi (GeneID 42289) | DRSC16922 | 1.52e6 | 1.56e6 | 1.21e6 | 1.26e6 | inactive
CG3732 (GeneID 37588) | DRSC04410 | 1.52e6 | 1.67e6 | 9.59e5 | 9.76e5 | inactive
Trxr1 (GeneID 31760) | DRSC18668 | 5.96e5 | – | 9.00e5 | – | inactive
acs (GeneID 38264) | DRSC08185 | 1.53e6 | 1.31e6 | 9.61e5 | 1.36e6 | inactive
CG15739 (GeneID 32146) | DRSC19705 | 1.63e6 | 1.56e6 | 1.11e6 | 1.18e6 | inactive
CG7342 (GeneID 42335) | DRSC16230 | 1.44e6 | 1.55e6 | 1.14e6 | 1.17e6 | inactive
Cyt-c-d (GeneID 34995) | DRSC03309 | 1.48e6 | 1.57e6 | 1.19e6 | 1.33e6 | inactive
SmydA-9 (GeneID 31859) | DRSC17814 | 1.56e6 | 1.61e6 | 1.03e6 | 1.18e6 | inactive

A portion of the results above:
Gene | DRSC id | Kc cell number, rep 1 | Kc cell number, rep 2 | S2R+ cell number, rep 1 | S2R+ cell number, rep 2 | Call
CG34290 (GeneID 5740609) | DRSC13660 | 1.25e6 | 1.43e6 | 1.14e6 | 8.96e5 | inactive
CG9897 + asRNA:CR42742 | DRSC04595 | 1.75e6 | 1.81e6 | 1.25e6 | 1.38e6 | inactive
Loxl2 (GeneID 37485) | DRSC04469 | 1.43e6 | 1.50e6 | 8.57e5 | 9.75e5 | inactive
CG12116 (GeneID 31782) | DRSC17812 | 1.62e6 | 1.56e6 | 1.06e6 | 1.25e6 | inactive
AANATL2 (GeneID 33874) | DRSC03227 | 1.62e6 | 1.60e6 | 1.24e6 | 1.43e6 | inactive
mTTF (GeneID 34837) | DRSC01909 | 1.51e6 | 1.58e6 | 1.13e6 | 1.29e6 | inactive
